One substance from publication PMC12561425 can be followed below.

Protein sequences, listed by entry. Tags and fused reporters are not part of them.
UniProt P16220: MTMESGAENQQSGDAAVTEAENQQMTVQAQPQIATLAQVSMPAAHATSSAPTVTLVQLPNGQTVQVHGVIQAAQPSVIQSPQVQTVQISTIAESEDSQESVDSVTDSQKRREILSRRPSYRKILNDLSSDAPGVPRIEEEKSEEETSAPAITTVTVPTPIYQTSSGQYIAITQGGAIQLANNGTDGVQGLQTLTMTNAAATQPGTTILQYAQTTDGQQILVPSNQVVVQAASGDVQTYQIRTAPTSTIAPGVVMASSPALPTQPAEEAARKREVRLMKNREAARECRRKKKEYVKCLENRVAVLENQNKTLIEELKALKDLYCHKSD

For this experiment, the target named is cyclic adenosine monophosphate (cAMP) response element-binding protein (CREB1/CREB) (human (endogenous in primary human keloid fibroblasts)) (UniProt P16220). Nature of the experiment: native gel or EMSA; native PAGE (Tris-Glycine native running buffer pH 8.8) and western blot with a CREB1 antibody on total protein of hKFs lysed in nondenaturing lysis buffer; hKFs untreated or with hsa_circ_0026782 overexpressed, knocked out or rescued. (In general: Mobility shift assays separate free from complexed probe on a gel.)

Results are given in words; binding and its absence hold for the method and conditions named. Some entries that bind do so weakly or less than the wild type.

As to “cyclic adenosine monophosphate (cAMP) response element-binding protein (CREB1/CREB) (from UniProt P16220 1-327)”, the binding result is on record as “binds”.
